Reference: article PMC11280224
Results are given in words; binding and its absence hold for the method and conditions named. In cells and extracts the contact can be indirect. For some assays here: Sequences can lack the tags named with a protein.

Chains of the proteins cited; added tags and fusions are not shown.
UniProt Q7Z434: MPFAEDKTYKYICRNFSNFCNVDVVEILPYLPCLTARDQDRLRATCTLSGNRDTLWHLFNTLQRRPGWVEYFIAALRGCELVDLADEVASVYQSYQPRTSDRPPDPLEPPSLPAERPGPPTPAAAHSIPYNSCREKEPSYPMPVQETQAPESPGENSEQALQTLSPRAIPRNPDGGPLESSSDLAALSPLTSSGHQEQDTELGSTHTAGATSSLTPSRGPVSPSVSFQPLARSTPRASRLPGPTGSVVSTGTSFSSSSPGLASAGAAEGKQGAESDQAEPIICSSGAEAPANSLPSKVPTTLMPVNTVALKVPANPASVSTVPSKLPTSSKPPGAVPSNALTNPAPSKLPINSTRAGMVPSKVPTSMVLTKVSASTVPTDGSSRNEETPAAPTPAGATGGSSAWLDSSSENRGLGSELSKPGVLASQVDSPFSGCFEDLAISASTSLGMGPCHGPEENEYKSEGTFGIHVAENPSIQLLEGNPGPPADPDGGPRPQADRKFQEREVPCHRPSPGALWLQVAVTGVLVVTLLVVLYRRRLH

Columns and labels:
Experiment in all cases: co-IP; HEK293T cells transfected with a Flag-tagged protein; lysate immunoprecipitated with anti-Flag agarose beads; eluate blotted with anti-USP26 antibody; precipitates washed three times with lysis buffer containing 500 mM NaCl
Flag-RIG-I = target: T1, Flag-RIG-I (UniProt O95786)
T1 sequence: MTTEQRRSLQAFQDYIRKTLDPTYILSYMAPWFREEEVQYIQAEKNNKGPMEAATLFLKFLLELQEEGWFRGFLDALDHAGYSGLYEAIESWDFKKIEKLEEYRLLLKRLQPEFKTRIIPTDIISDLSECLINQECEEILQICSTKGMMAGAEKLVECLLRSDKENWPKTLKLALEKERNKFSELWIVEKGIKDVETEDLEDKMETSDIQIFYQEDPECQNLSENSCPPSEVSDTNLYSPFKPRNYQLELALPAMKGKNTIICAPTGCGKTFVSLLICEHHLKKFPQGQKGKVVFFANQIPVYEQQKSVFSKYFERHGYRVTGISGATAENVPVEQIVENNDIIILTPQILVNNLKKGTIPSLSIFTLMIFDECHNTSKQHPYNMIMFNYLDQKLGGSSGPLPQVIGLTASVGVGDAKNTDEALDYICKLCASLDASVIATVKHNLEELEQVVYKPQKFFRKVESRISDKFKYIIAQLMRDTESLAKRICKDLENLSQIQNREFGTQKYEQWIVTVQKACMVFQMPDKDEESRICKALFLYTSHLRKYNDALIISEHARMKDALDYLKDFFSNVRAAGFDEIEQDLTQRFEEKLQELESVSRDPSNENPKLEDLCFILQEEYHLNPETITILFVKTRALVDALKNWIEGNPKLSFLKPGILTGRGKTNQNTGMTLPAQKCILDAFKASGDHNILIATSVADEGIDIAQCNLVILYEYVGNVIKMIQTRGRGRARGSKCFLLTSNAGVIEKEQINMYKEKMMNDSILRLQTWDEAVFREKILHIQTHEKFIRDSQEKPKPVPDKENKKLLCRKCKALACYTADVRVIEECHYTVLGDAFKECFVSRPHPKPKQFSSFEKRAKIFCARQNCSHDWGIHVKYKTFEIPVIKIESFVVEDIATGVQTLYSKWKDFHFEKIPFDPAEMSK

Flag-MDA5 = target: T2, Flag-MDA5 (UniProt Q9BYX4)
T2 sequence: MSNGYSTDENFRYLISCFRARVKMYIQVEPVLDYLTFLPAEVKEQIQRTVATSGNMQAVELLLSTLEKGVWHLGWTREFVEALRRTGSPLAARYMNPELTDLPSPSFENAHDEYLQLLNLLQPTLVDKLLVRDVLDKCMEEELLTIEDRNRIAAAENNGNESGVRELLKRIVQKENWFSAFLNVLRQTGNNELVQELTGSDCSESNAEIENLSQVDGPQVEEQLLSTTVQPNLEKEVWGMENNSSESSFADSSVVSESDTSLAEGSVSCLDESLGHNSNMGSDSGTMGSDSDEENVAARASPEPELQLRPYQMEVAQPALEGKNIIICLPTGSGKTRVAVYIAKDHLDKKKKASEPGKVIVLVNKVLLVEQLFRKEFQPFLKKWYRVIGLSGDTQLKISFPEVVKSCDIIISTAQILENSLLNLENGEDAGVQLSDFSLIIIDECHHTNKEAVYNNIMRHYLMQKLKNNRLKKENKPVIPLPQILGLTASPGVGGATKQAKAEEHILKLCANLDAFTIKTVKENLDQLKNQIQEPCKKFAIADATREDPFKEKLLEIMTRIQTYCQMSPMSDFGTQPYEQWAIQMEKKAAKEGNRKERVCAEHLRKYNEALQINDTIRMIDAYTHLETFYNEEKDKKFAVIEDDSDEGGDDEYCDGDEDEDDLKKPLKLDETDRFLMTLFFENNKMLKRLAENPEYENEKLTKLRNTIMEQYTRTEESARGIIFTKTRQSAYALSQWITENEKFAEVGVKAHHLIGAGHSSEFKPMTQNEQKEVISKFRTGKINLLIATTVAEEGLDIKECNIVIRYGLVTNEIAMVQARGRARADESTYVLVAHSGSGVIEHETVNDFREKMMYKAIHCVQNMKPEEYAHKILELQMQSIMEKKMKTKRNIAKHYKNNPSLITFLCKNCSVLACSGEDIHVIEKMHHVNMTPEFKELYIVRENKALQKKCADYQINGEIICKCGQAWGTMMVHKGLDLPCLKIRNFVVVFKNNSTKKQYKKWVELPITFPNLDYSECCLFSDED

Flag-TBK1 = target: T3, Flag-TBK1 (UniProt Q9UHD2)
T3 sequence: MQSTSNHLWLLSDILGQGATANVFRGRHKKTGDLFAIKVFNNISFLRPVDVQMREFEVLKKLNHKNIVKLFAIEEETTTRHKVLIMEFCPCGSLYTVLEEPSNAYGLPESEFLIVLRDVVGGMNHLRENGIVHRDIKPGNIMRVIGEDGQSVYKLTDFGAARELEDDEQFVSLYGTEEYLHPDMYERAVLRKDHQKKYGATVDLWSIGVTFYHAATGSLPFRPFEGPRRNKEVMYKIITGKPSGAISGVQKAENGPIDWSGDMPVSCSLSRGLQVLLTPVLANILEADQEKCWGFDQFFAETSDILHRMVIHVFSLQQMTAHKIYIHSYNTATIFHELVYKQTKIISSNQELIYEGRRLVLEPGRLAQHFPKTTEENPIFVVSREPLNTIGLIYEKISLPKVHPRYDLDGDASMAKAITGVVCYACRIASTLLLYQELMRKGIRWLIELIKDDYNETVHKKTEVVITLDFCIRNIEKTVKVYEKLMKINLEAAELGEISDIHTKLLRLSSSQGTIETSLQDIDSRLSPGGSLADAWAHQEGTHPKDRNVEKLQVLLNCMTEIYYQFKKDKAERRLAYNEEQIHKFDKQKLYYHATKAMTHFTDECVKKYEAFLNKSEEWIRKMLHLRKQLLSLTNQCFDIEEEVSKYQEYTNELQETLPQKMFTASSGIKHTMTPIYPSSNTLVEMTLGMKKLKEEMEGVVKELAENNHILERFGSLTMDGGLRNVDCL

Flag-IRF3 = target: T4, Flag-IRF3 (UniProt Q14653)
T4 sequence: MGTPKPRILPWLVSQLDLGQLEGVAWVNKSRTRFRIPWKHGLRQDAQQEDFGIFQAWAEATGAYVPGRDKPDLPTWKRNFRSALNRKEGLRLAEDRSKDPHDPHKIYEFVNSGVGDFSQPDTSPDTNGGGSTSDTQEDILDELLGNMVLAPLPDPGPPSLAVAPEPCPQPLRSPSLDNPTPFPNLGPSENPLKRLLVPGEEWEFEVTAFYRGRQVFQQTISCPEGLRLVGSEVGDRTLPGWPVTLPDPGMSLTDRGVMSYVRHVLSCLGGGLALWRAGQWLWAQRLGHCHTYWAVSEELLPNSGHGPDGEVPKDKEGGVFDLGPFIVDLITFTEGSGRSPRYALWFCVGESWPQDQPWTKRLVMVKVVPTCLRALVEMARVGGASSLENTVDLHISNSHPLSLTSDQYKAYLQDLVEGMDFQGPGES

Flag-MAVS = Flag-MAVS (UniProt Q7Z434)

Measured: binding

B1: Ubiquitin-specific protease 26 (USP26) (enzyme, UniProt Q9BXU7 1-913)
chain: MAALFLRGFVQIGNCKTGISKSKEAFIEAVERKKKDRLVLYFKSGKYSTFRLSDNIQNVVLKSYRGNQNHLHLTLQNNNGLFIEGLSSTDAEQLKIFLDRVHQNEVQPPVRPGKGGSVFSSTTQKEINKTSFHKVDEKSSSKSFEIAKGSGTGVLQRMPLLTSKLTLTCGELSENQHKKRKRMLSSSSEMNEEFLKENNSVEYKKSKADCSRCVSYNREKQLKLKELEENKKLECESSCIMNATGNPYLDDIGLLQALTEKMVLVFLLQQGYSDGYTKWDKLKLFFELFPEKICHGLPNLGNTCYMNAVLQSLLSIPSFADDLLNQSFPWGKIPLNALTMCLARLLFFKDTYNIEIKEMLLLNLKKAISAAAEIFHGNAQNDAHEFLAHCLDQLKDNMEKLNTIWKPKSEFGEDNFPKQVFADDPDTSGFSCPVITNFELELLHSIACKACGQVILKTELNNYLSINLPQRIKAHPSSIQSTFDLFFGAEELEYKCAKCEHKTSVGVHSFSRLPRILIVHLKRYSLNEFCALKKNDQEVIISKYLKVSSHCNEGTRPPLPLSEDGEITDFQLLKVIRKMTSGNISVSWPATKESKDILAPHIGSDKESEQKKGQTVFKGASRRQQQKYLGKNSKPNELESVYSGDRAFIEKEPLAHLMTYLEDTSLCQFHKAGGKPASSPGTPLSKVDFQTVPENPKRKKYVKTSKFVAFDRIINPTKDLYEDKNIRIPERFQKVSEQTQQCDGMRICEQAPQQALPQSFPKPGTQGHTKNLLRPTKLNLQKSNRNSLLALGSNKNPRNKDILDKIKSKAKETKRNDDKGDHTYRLISVVSHLGKTLKSGHYICDAYDFEKQIWFTYDDMRVLGIQEAQMQEDRRCTGYIFFYMHNEIFEEMLKREENAQLNSKEVEETLQKE
no binding: all assays above
